Experimental data: patent publication US20050148505A1, “Genes and agents to regulate follicular development, ovulation cycle and steriodogenesis” (priority 2003, published 2005)
At least one structure is not confirmed: it was looked up by name or label, or the drawing left a doubt.

Test system: CTBP mRNA
Assay: CTBP mRNA expression in primary granulosa cell culture by semi-quantitative RT-PCR
Format: cell-based, rat
Details: forskolin 10 μM instead of FSH, 6 h
Protocol: FIG. 3. CTBP mRNA expression in primary granulosa cell culture. Granulosa cells were isolated from the ovaries of 24 day old immature rat primed with 17β-estradiol. The cells were cultured in the presence of 30 ng/ml FSH for up to 48 h, and RNA was extracted and amplified for CTBP using quantitative RT-PCR. In addition, L-19 mRNA was probed as an internal control. The CTBP values were normalized with the corresponding values of L-19 and two independent experimental values were averaged.
FIG. 5. Effects of cycloheximide and α-amanitin treatment on the FSH/forskolin-induced expression of CTBP mRNA. Granulosa cells were isolated from 17β-estradiol primed 24-day old immature rat ovaries and cultured with FSH (30 ng/ml) or forskolin (10 μM, FSK) in the presence or absence of cycloheximide (10 μg/ml, CHX) or α-amanitin (30 μg/ml, AMA) for the 6 h. CHX, a translation inhibitor, and AMA, a transcription inhibitor, were pretreated to the cell cultures one hour before hormone treatment. Total RNA was isolated and analyzed for CTBP and L-19 mRNA by semi-quantitative RT-PCR assay using 23 cycles for CTBP and 20 cycles for L-19. L-19 was used as an internal control. Values shown are the range of two independent experiments along with the mean, indicated by bars.
For granulosa cell culture, immature rats were daily injected sub cutaneously with 1.5 mg of 17β-estradiol at 21, 22 and 23 days of age. […]

C=C[C@@]1(C)CC(=O)[C@]2(O)[C@@]3(C)[C@@H](O)CCC(C)(C)[C@@H]3[C@H](O)[C@H](OC(C)=O)[C@@]2(C)O1 [Forskolin, forskolin]
CTBP mRNA level: reduced the CTBP mRNA level
